Reference: patent publication US8628753B2, “Reduced dye probes for the detection of radical oxygen species” (Emory University, priority 2008, dated 2014)
Some entries share one result that the patent states for a list of compounds.

Experiment: Sensitivity to hydroxide radical generated from H2O2 and Fe2+
Settings: FIG. 3a
Description: Hydroxide radicals were generated in situ by reacting hydrogen peroxide with Fe^2+. Various quantities of hydrogen peroxide (H2O2) stock solutions were added to a solution of hydrocyanine in methanol to generate hydrogen peroxide concentrations from about 2 to about 30 nM. Aqueous Fe^2+(1 μM) was added to the reduced dye/H2O2 solution to generate a 200 nM concentration. The resulting solution was kept at ambient temperature for 5 minutes and the fluorescence intensity was measured (λex/λem) against a reagent blank (control solution containing only reagent) simultaneously.
This measurement was carried out using 100 μM of Hydro-ICG at 25° C. The hydroxide radical was generated using the procedure described above.

Row | Compound | hydroxyl radical range of linear relationship
1 | CCN1/C(=C/C=C/C2N(CC)c3ccccc3C2(C)C)C(C)(C)c2ccccc21 (centres unmarked) [Hydro-Cy3] | 1 to 50 nM
2 | CCN1/C(=C/C=C/C=C/C=C/C2N(CC)c3ccccc3C2(C)C)C(C)(C)c2ccccc21 (centres unmarked) [Hydro-Cy7] | 1 to 50 nM
